Reference: doi:10.1101/2020.12.17.423362
These are yes or no findings as the source states them, for the method shown. In cells and extracts the contact can be indirect. Some results given as binding are weak or reduced against the parent protein; the word gives no strength.

The chains behind the UniProt entries cited, without tags or fusion partners.
UniProt Q99873: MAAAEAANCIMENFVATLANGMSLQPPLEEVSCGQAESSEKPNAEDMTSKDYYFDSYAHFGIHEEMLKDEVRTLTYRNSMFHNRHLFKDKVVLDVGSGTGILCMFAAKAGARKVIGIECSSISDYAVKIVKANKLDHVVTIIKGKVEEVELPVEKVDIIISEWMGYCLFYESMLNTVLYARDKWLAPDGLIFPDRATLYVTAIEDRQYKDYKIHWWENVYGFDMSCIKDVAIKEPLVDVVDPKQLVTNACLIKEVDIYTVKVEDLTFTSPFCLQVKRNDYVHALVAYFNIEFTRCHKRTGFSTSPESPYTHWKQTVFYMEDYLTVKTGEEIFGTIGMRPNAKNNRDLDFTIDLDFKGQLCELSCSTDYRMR
UniProt Q16186: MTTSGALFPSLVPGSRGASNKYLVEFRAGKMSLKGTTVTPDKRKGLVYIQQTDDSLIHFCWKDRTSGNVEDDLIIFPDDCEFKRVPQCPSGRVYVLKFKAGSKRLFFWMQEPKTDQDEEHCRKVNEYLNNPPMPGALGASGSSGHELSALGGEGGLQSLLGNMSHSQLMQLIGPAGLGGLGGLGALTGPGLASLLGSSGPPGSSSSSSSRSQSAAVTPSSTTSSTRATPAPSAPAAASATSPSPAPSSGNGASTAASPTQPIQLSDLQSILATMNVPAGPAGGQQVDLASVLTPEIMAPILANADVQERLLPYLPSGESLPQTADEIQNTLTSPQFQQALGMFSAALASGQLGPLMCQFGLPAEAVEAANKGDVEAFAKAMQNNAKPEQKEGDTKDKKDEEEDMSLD
UniProt Q13547: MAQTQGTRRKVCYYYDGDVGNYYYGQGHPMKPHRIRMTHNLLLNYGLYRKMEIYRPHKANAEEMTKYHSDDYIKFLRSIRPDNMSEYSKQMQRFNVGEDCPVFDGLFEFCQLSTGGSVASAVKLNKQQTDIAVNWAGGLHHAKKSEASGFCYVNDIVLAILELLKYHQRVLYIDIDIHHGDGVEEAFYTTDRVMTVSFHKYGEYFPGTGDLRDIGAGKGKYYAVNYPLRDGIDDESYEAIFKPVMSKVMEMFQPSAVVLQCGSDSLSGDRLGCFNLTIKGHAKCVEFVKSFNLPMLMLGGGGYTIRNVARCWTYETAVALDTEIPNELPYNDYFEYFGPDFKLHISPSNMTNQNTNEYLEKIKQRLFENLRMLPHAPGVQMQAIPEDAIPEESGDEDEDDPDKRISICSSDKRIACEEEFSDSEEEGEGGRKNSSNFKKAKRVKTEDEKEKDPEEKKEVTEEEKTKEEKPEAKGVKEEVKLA
UniProt O43347: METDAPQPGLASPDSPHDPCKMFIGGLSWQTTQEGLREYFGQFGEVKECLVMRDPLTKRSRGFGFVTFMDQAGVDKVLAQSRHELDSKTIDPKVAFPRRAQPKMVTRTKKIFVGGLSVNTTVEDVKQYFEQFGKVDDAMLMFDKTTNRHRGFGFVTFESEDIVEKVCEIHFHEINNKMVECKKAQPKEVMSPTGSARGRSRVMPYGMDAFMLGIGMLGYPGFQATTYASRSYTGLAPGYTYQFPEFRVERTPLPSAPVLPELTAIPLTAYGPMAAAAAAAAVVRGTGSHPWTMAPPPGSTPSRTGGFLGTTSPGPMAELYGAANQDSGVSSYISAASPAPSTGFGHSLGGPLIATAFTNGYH
UniProt P25787: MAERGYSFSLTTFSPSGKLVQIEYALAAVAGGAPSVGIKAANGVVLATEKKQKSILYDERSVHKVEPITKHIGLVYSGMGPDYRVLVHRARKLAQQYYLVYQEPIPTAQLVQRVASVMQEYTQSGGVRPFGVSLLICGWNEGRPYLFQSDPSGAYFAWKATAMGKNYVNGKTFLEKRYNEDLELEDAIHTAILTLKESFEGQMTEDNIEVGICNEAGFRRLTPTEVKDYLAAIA
UniProt Q13200: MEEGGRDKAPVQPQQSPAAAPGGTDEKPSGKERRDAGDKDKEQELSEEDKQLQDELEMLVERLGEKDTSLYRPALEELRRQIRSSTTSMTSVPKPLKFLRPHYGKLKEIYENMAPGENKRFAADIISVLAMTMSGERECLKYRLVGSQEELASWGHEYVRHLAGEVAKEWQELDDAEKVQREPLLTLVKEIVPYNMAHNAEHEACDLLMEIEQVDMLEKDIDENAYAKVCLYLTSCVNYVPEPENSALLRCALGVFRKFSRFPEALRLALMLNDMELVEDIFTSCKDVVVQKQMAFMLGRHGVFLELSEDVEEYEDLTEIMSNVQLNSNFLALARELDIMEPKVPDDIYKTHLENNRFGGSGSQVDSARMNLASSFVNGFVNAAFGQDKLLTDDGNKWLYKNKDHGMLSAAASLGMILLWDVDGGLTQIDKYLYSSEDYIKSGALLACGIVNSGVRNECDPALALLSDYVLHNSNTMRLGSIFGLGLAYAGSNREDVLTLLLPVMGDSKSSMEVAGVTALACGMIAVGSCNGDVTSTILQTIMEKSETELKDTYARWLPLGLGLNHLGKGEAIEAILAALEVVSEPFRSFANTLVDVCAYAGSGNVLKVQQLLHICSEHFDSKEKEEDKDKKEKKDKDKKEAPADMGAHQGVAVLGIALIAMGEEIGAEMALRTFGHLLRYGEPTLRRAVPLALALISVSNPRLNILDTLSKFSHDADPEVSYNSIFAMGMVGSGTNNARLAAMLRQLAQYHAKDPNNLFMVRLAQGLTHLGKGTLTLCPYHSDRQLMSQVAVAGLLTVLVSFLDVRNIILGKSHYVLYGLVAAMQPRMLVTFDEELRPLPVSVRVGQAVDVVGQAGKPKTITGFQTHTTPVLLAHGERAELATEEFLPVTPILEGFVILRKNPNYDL
UniProt P55036: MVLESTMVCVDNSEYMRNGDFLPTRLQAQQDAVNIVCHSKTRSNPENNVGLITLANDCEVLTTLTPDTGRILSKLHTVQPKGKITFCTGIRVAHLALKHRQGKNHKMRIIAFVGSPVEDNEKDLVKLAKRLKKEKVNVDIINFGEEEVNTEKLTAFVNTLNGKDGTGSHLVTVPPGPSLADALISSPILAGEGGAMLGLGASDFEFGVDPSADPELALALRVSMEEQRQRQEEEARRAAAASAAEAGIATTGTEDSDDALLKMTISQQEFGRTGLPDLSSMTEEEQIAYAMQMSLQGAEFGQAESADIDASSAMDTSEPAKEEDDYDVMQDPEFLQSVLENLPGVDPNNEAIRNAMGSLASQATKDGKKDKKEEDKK

The substances below were run against PRMT1 (human) (UniProt Q99873) (assay: co-IP).

binding, binds:
ADRM1 (from UniProt Q16186 1-407)
HDAC1 (from UniProt Q13547 1-482)
MSI1 (from UniProt O43347 1-362)
PSMA2 (from UniProt P25787 1-234)
PSMD2 (from UniProt Q13200 1-908)
PSMD4 (from UniProt P55036 1-377)
